{
  "source": "PubChem BioAssay AID248",
  "about": "(DTP/NCI, 2004)",
  "tested_on": "L1210 leukemia ip in BDF1 mice, survival T/C",
  "experiment": "NCI In Vivo Anticancer Drug Screen. Data for tumor model L1210 Leukemia (intraperitoneal) in B6D2F1 (BDF1) mice",
  "details": "T/C endpoint: mean survival time, higher T/C = longer survival",
  "key": {"[1]": {"details": "dose: 75.0 mg/kg/injection, schedule: Q01DX001 (ip), vehicle: saline"}, "[2]": {"details": "dose: 200.0 mg/kg/injection, schedule: Q04DX003 (ip), vehicle: saline with Tween-80"}, "[3]": {"details": "dose: 400.0 mg/kg/injection, schedule: Q04DX003 (ip), vehicle: saline with Tween-80"}, "[4]": {"details": "dose: 400.0 mg/kg/injection, schedule: Q01DX009 (ip), vehicle: saline with Tween-80"}, "[5]": {"details": "dose: 400.0 mg/kg/injection, schedule: Q04DX003 (ip), vehicle: saline"}, "[6]": {"details": "dose: 300.0 mg/kg/injection, schedule: Q01DX001 (ip), vehicle: saline"}, "[7]": {"details": "dose: 400.0 mg/kg/injection, schedule: Q01DX001 (ip), vehicle: carboxymethylcellulose (CMC)"}},
  "note": "The list does not hold the whole screen: it is rich in T/C values a quarter to a half above the control, in often repeated tests (any T/C) and in doses without a T/C. Other doses and runs of a compound stand elsewhere. T/C gives the treated animals as a percentage of the vehicle group. Some entries give survivors of the animals treated and no T/C: the source files T/C as zero there, which appears to mark a toxic dose or a test without result, not a measured value. Some doses without a T/C left all or most animals alive at the check, yet need not have been tolerated: the source hardly ever lists a survival T/C far under the control, and the zero likely stands for such cases as well. Survivors were counted at the toxicity check, usually on the fifth day, unless a day is given; later deaths do not show. Schedules are NCI's codes, taken here to give the interval after Q, in days (D) or hours (H), and the number of doses after X. Some schedule codes hold Z or #, which are not explained here. Some doses were run more than once; the results are listed from low to high. For survival time, the PubChem record calls one and a half times the control and up active, and a quarter to a half above the control has no call in these data; cut-offs in other NCI protocols can differ.",
  "data": [
    {"smiles": "CC(=O)n1cc(F)c(=O)[nH]c1=O", "values": [
      {"measurement": "T/C", "setting": "dose: 4.8 mg/kg/injection, schedule: Q01DX009 (ip), vehicle: saline", "result": "136 % of control"},
      {"measurement": "T/C", "setting": "dose: 6.25 mg/kg/injection, schedule: Q01DX009 (ip), vehicle: saline", "result": "133 % of control"},
      {"measurement": "T/C", "setting": "dose: 7.2 mg/kg/injection, schedule: Q01DX009 (ip), vehicle: saline", "result": "146 % of control"},
      {"measurement": "T/C", "setting": "dose: 12.5 mg/kg/injection, schedule: Q01DX009 (ip), vehicle: saline", "result": "138 % of control"},
      {"measurement": "T/C", "setting": "dose: 25.0 mg/kg/injection, schedule: Q04DX003 (ip), vehicle: saline", "result": "139 % of control"},
      {"measurement": "T/C", "setting": "dose: 50.0 mg/kg/injection, schedule: Q01DX009 (ip), vehicle: saline", "result": "128 % of control"},
      {"measurement": "T/C", "setting": "dose: 50.0 mg/kg/injection, schedule: Q04DX003 (ip), vehicle: saline with Tween-80", "result": "144 % of control"},
      {"measurement": "T/C", "setting": "[1]", "result": "134 % of control"},
      {"measurement": "survivor count", "setting": "[2]", "result": "6 of 6"},
      {"measurement": "survivor count", "setting": "[3]", "result": "6 of 6"}
    ]},
    {"smiles": "CC(C)(C)C(=O)CC(=O)C(C)(C)C.CC(C)(C)C(=O)CC(=O)C(C)(C)C.CC(C)(C)C(=O)CC(=O)C(C)(C)C.[Pr]", "values": [
      {"measurement": "survivor count", "setting": "[4]", "result": "6 of 6"}
    ]},
    {"smiles": "COC(=O)c1ccc(N2C(=O)C=CC2=O)cc1", "values": [
      {"measurement": "survivor count", "setting": "dose: 100.0 mg/kg/injection, schedule: Q04DX003 (ip), vehicle: saline with Tween-80", "result": "1 of 6"},
      {"measurement": "survivor count", "setting": "[2]", "result": "0 of 6"},
      {"measurement": "survivor count", "setting": "[3]", "result": "0 of 6"}
    ]},
    {"smiles": "CN(C)Cc1ccc([N+](=O)[O-])cc1", "values": [
      {"measurement": "survivor count", "setting": "dose: 150.0 mg/kg/injection, schedule: Q01DX001 (ip), vehicle: other", "result": "3 of 6"},
      {"measurement": "survivor count", "setting": "dose: 300.0 mg/kg/injection, schedule: Q01DX001 (ip), vehicle: other", "result": "0 of 6"},
      {"measurement": "survivor count", "setting": "[5]", "result": "6 of 6"}
    ]},
    {"smiles": "CC(C)=NOC(C)C(=O)O", "note": "(centres undefined)", "values": [
      {"measurement": "survivor count", "setting": "[6]", "result": "2 of 6"},
      {"measurement": "survivor count", "setting": "[5]", "result": "3 of 6"}
    ]},
    {"smiles": "NC1CON(C(c2ccccc2)(c2ccccc2)c2ccccc2)C1=O", "note": "(centres undefined)", "values": [
      {"measurement": "survivor count", "setting": "[7]", "result": "2 of 4"}
    ]},
    {"smiles": "CC(Oc1ccccc1)C(=O)NC(=S)Nc1cccc2ccccc12", "note": "(centres undefined)", "values": [
      {"measurement": "survivor count", "setting": "dose: 200.0 mg/kg/injection, schedule: Q01DX009 (ip), vehicle: saline with Tween-80", "result": "0 of 3 and 6 of 6"},
      {"measurement": "survivor count", "setting": "[4]", "result": "0 of 3 and 2 of 6"}
    ]},
    {"smiles": "CCCCCCCCCCC[n+]1cccc(C#N)c1", "values": [
      {"measurement": "survivor count", "setting": "[1]", "result": "1 of 6"},
      {"measurement": "survivor count", "setting": "dose: 150.0 mg/kg/injection, schedule: Q01DX001 (ip), vehicle: saline", "result": "0 of 6"},
      {"measurement": "survivor count", "setting": "[6]", "result": "0 of 6"}
    ]},
    {"smiles": "O=C(Nc1ccc(C2=NCCN2)cc1)Nc1cccc(NC(=S)Nc2ccc(C3=NCCN3)cc2)c1", "values": [
      {"measurement": "T/C", "setting": "dose: 15.0 mg/kg/injection, schedule: Q01DX Z (ip), vehicle: saline", "result": "140 % of control"},
      {"measurement": "survivor count", "setting": "dose: 60.0 mg/kg/injection, schedule: Q01DX Z (ip), vehicle: saline", "result": "5 of 6"},
      {"measurement": "survivor count", "setting": "dose: 120.0 mg/kg/injection, schedule: Q01DX Z (ip), vehicle: saline", "result": "0 of 6"}
    ]},
    {"smiles": "CCOC(=O)Sc1ccccc1", "values": [
      {"measurement": "survivor count", "setting": "dose: 400.0 mg/kg/injection, schedule: Q01DX001 (ip), vehicle: other", "result": "0 of 3"}
    ]},
    {"smiles": "CC(=O)Nc1ccc2c(c1)C[N+](C)(C1CCCCC1)CO2", "note": "(centres undefined)", "values": [
      {"measurement": "survivor count", "setting": "dose: 100.0 mg/kg/injection, schedule: Q01DX015 (ip), vehicle: carboxymethylcellulose (CMC)", "result": "3 of 6"},
      {"measurement": "survivor count", "setting": "dose: 200.0 mg/kg/injection, schedule: Q01DX015 (ip), vehicle: carboxymethylcellulose (CMC)", "result": "0 of 6"},
      {"measurement": "survivor count", "setting": "[2]", "result": "2 of 6"},
      {"measurement": "survivor count", "setting": "[7]", "result": "3 of 6"}
    ]},
    {"smiles": "O=C1C=C(O/C=C/C(C(F)(F)F)C(F)(F)F)C(=O)c2ccccc21", "values": [
      {"measurement": "survivor count", "setting": "dose: 25.0 mg/kg/injection, schedule: Q01DX009 (ip), vehicle: Klucel (hydroxypropylcellulose) (HPC)", "result": "4 of 6"},
      {"measurement": "survivor count", "setting": "dose: 50.0 mg/kg/injection, schedule: Q01DX009 (ip), vehicle: Klucel (hydroxypropylcellulose) (HPC)", "result": "2 of 6"},
      {"measurement": "survivor count", "setting": "dose: 115.0 mg/kg/injection, schedule: Q01DX001 (ip), vehicle: Klucel (hydroxypropylcellulose) (HPC)", "result": "1 of 6"},
      {"measurement": "survivor count", "setting": "dose: 170.0 mg/kg/injection, schedule: Q01DX001 (ip), vehicle: Klucel (hydroxypropylcellulose) (HPC)", "result": "2 of 6"}
    ]},
    {"smiles": "CC1(O)C2CC3CC(C2)CC1C3", "note": "(centres undefined)", "values": [
      {"measurement": "survivor count", "setting": "dose: 100.0 mg/kg/injection, schedule: Q04DX002 (ip), vehicle: Klucel (hydroxypropylcellulose) (HPC)", "result": "3 of 3"}
    ]},
    {"smiles": "c1ccc(CN2CCCCc3ccccc32)cc1", "values": [
      {"measurement": "survivor count", "setting": "[3]", "result": "3 of 6"}
    ]}
  ]
}
